# This is one part of the list.
# B1: AT3G44510(29) (Arabidopsis thaliana), F4J341 (protein)
# chain: MEEHLQGRIKLHDGRYLAYKERGVPKDDAKFTIVLVHGFGSSKDMNFNVSQELVNEIGIYFVLYDRAGYGESDPNPKRSLKSEAYDVQELADGLEIGSRFYLIGISMGSYTVWSCLKHIPQRLAGVAMVAPVVNFRWPSIPKSLMPKDYRREVAKWSVWIANYFPGLLQWLVTQNMFSTTSMLEKNPVYFNDQDIEVLKHIKGFPMLTKEKLRERGVFGTLRSDFLVAFGDWDFDPADLPDPSLSGPEKGSSSVHIWQGYEDKVMPFQLQRCLCRKLPWIRYHEVPKGGHLIVHYDGICDAILKSLLLGEDLPMYKPKAVITEPA
# Tests used:
# Assay in all cases: glycan array binding signal (z-score within array); higher = stronger binding
# Details in all cases: glycan notation: IUPAC condensed, linker removed
# [1] = target: Gal(b1-4)GlcNAc(b1-3)Gal(b1-3)GlcNAc
# Procedure, shortened: (§1)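 Glycan array binding is given as a within-array Z-score, which can be read as non-binding when negative. The arrays, 3228 of them, came from the Consortium for Functional Glycomics database and were retained only where the protein sequence was available. Z-scores were averaged across arrays of the same protein sequence at different concentrations or buffers and across linkers.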
# [2] = target: Gal(b1-4)GlcNAc(b1-3)Gal(b1-4)Glc
# Procedure, shortened: as §1
# [3] = target: Gal(b1-4)GlcNAc(b1-3)Gal(b1-4)GlcNAc
# Procedure, shortened: as §1
# [4] = target: Gal(b1-4)GlcNAc(b1-3)Gal(b1-4)GlcNAc(b1-2)Man(a1-3)[Gal(b1-4)GlcNAc(b1-3)Gal(b1-4)GlcNAc(b1-2)Man(a1-6)]Man(b1-4)GlcNAc(b1-4)GlcNAc
# Procedure, shortened: as §1
# [5] = target: Gal(b1-4)GlcNAc(b1-3)Gal(b1-4)GlcNAc(b1-2)Man(a1-3)[Gal(b1-4)GlcNAc(b1-3)Gal(b1-4)GlcNAc(b1-2)Man(a1-6)]Man(b1-4)GlcNAc(b1-4)[Fuc(a1-6)]GlcNAc
# Procedure, shortened: as §1
# [6] = target: Gal(b1-4)GlcNAc(b1-3)Gal(b1-4)GlcNAc(b1-2)[Gal(b1-4)GlcNAc(b1-3)Gal(b1-4)GlcNAc(b1-6)]Man(a1-6)[Gal(b1-4)GlcNAc(b1-3)Gal(b1-4)GlcNAc(b1-2)Man(a1-3)]Man(b1-4)GlcNAc(b1-4)GlcNAc
# Procedure, shortened: as §1
# [7] = target: Gal(b1-4)GlcNAc(b1-3)Gal(b1-4)GlcNAc(b1-2)[Gal(b1-4)GlcNAc(b1-3)Gal(b1-4)GlcNAc(b1-6)]Man(a1-6)[Gal(b1-4)GlcNAc(b1-3)Gal(b1-4)GlcNAc(b1-2)Man(a1-3)]Man(b1-4)GlcNAc(b1-4)[Fuc(a1-6)]GlcNAc
# Procedure, shortened: as §1
# [8] = target: Gal(b1-4)GlcNAc(b1-3)Gal(b1-4)GlcNAc(b1-3)Gal(b1-4)GlcNAc
# Procedure, shortened: as §1
# [9] = target: Gal(b1-4)GlcNAc(b1-3)Gal(b1-4)GlcNAc(b1-3)Gal(b1-4)GlcNAc(b1-2)Man(a1-3)[Gal(b1-4)GlcNAc(b1-3)Gal(b1-4)GlcNAc(b1-3)Gal(b1-4)GlcNAc(b1-2)Man(a1-6)]Man(b1-4)GlcNAc(b1-4)GlcNAc
# Procedure, shortened: as §1
# [10] = target: Gal(b1-4)GlcNAc(b1-3)Gal(b1-4)GlcNAc(b1-3)Gal(b1-4)GlcNAc(b1-2)Man(a1-3)[Gal(b1-4)GlcNAc(b1-3)Gal(b1-4)GlcNAc(b1-3)Gal(b1-4)GlcNAc(b1-2)Man(a1-6)]Man(b1-4)GlcNAc(b1-4)[Fuc(a1-6)]GlcNAc
# Procedure, shortened: as §1
# [11] = target: Gal(b1-4)GlcNAc(b1-3)Gal(b1-4)GlcNAc(b1-3)Gal(b1-4)GlcNAc(b1-2)[Gal(b1-4)GlcNAc(b1-3)Gal(b1-4)GlcNAc(b1-3)Gal(b1-4)GlcNAc(b1-6)]Man(a1-6)[Gal(b1-4)GlcNAc(b1-3)Gal(b1-4)GlcNAc(b1-3)Gal(b1-4)GlcNAc(b1-2)Man(a1-3)]Man(b1-4)GlcNAc(b1-4)[Fuc(a1-6)]GlcNAc
# Procedure, shortened: as §1
# [12] = target: Gal(b1-4)GlcNAc(b1-3)Gal(b1-4)GlcNAc(b1-3)Gal(b1-4)GlcNAc(b1-3)Gal(b1-4)GlcNAc(b1-2)Man(a1-3)[Gal(b1-4)GlcNAc(b1-3)Gal(b1-4)GlcNAc(b1-3)Gal(b1-4)GlcNAc(b1-3)Gal(b1-4)GlcNAc(b1-2)Man(a1-6)]Man(b1-4)GlcNAc(b1-4)GlcNAc
# Procedure, shortened: as §1
# [13] = target: Gal(b1-4)GlcNAc(b1-3)Gal(b1-4)GlcNAc(b1-3)Gal(b1-4)GlcNAc(b1-3)Gal(b1-4)GlcNAc(b1-2)Man(a1-3)[Gal(b1-4)GlcNAc(b1-3)Gal(b1-4)GlcNAc(b1-3)Gal(b1-4)GlcNAc(b1-3)Gal(b1-4)GlcNAc(b1-2)Man(a1-6)]Man(b1-4)GlcNAc(b1-4)[Fuc(a1-6)]GlcNAc
# Procedure, shortened: as §1
# [14] = target: Gal(b1-4)GlcNAc(b1-3)Gal(b1-4)GlcNAc(b1-3)Gal(b1-4)GlcNAc(b1-3)Gal(b1-4)GlcNAc(b1-2)[Gal(b1-4)GlcNAc(b1-3)Gal(b1-4)GlcNAc(b1-3)Gal(b1-4)GlcNAc(b1-3)Gal(b1-4)GlcNAc(b1-6)]Man(a1-6)[Gal(b1-4)GlcNAc(b1-3)Gal(b1-4)GlcNAc(b1-3)Gal(b1-4)GlcNAc(b1-3)Gal(b1-4)GlcNAc(b1-2)Man(a1-3)]Man(b1-4)GlcNAc(b1-4)[Fuc(a1-6)]GlcNAc
# Procedure, shortened: as §1
# [15] = target: Gal(b1-4)GlcNAc(b1-3)Gal(b1-4)GlcNAc(b1-3)Gal(b1-4)GlcNAc(b1-3)Gal(b1-4)GlcNAc(b1-3)Gal(b1-4)GlcNAc(b1-2)Man(a1-3)[Gal(b1-4)GlcNAc(b1-3)Gal(b1-4)GlcNAc(b1-3)Gal(b1-4)GlcNAc(b1-3)Gal(b1-4)GlcNAc(b1-3)Gal(b1-4)GlcNAc(b1-2)Man(a1-6)]Man(b1-4)GlcNAc(b1-4)GlcNAc
# Procedure, shortened: as §1
# [16] = target: Gal(b1-4)GlcNAc(b1-3)Gal(b1-4)GlcNAc(b1-3)Gal(b1-4)GlcNAc(b1-3)Gal(b1-4)GlcNAc(b1-3)Gal(b1-4)GlcNAc(b1-2)Man(a1-3)[Gal(b1-4)GlcNAc(b1-3)Gal(b1-4)GlcNAc(b1-3)Gal(b1-4)GlcNAc(b1-3)Gal(b1-4)GlcNAc(b1-3)Gal(b1-4)GlcNAc(b1-2)Man(a1-6)]Man(b1-4)GlcNAc(b1-4)[Fuc(a1-6)]GlcNAc
# Procedure, shortened: as §1
# [17] = target: Gal(b1-4)GlcNAc(b1-3)Gal(b1-4)GlcNAc(b1-3)Gal(b1-4)GlcNAc(b1-3)Gal(b1-4)GlcNAc(b1-3)Gal(b1-4)GlcNAc(b1-2)[Gal(b1-4)GlcNAc(b1-3)Gal(b1-4)GlcNAc(b1-3)Gal(b1-4)GlcNAc(b1-3)Gal(b1-4)GlcNAc(b1-3)Gal(b1-4)GlcNAc(b1-6)]Man(a1-6)[Gal(b1-4)GlcNAc(b1-3)Gal(b1-4)GlcNAc(b1-3)Gal(b1-4)GlcNAc(b1-3)Gal(b1-4)GlcNAc(b1-3)Gal(b1-4)GlcNAc(b1-2)Man(a1-3)]Man(b1-4)GlcNAc(b1-4)[Fuc(a1-6)]GlcNAc
# Procedure, shortened: as §1
# [18] = target: Gal(b1-4)GlcNAc(b1-3)Gal(b1-4)GlcNAc(b1-3)Gal(b1-4)GlcNAc(b1-3)Gal(b1-4)GlcNAc(b1-3)Gal(b1-4)GlcNAc(b1-3)Gal(b1-4)GlcNAc(b1-2)Man(a1-3)[Gal(b1-4)GlcNAc(b1-3)Gal(b1-4)GlcNAc(b1-3)Gal(b1-4)GlcNAc(b1-3)Gal(b1-4)GlcNAc(b1-3)Gal(b1-4)GlcNAc(b1-3)Gal(b1-4)GlcNAc(b1-2)Man(a1-6)]Man(b1-4)GlcNAc(b1-4)GlcNAc
# Procedure, shortened: as §1
# [19] = target: Gal(b1-4)GlcNAc(b1-3)Gal(b1-4)GlcNAc(b1-3)GalNAc
# Procedure, shortened: as §1
binder,measurement,setting,value
B1,glycan array binding signal (z-score),[1],-0.443
same,glycan array binding signal (z-score),[2],0.133
same,glycan array binding signal (z-score),[3],0.198
same,glycan array binding signal (z-score),[4],-0.101
same,glycan array binding signal (z-score),[5],0.664
same,glycan array binding signal (z-score),[6],-0.242
same,glycan array binding signal (z-score),[7],-0.519
same,glycan array binding signal (z-score),[8],-0.803
same,glycan array binding signal (z-score),[9],-0.211
same,glycan array binding signal (z-score),[10],-0.156
same,glycan array binding signal (z-score),[11],0.142
same,glycan array binding signal (z-score),[12],-0.195
same,glycan array binding signal (z-score),[13],-0.53
same,glycan array binding signal (z-score),[14],0.247
same,glycan array binding signal (z-score),[15],-0.625
same,glycan array binding signal (z-score),[16],-0.499
same,glycan array binding signal (z-score),[17],-0.053
same,glycan array binding signal (z-score),[18],0.658
same,glycan array binding signal (z-score),[19],-0.258

# Quoted from the entries so far for reference:
binder,measurement,setting,value
B1,glycan array binding signal (z-score),[8],-0.803
same,glycan array binding signal (z-score),[9],-0.211
same,glycan array binding signal (z-score),[10],-0.156
same,glycan array binding signal (z-score),[11],0.142
